One molecule from publication PMC3284570 can be followed below.

Protein sequences, listed by entry. Tags and fused reporters are not part of them. Lines headed by an entry give the natural chain unless they say otherwise; changes in a name come on top.
UniProt Q09472: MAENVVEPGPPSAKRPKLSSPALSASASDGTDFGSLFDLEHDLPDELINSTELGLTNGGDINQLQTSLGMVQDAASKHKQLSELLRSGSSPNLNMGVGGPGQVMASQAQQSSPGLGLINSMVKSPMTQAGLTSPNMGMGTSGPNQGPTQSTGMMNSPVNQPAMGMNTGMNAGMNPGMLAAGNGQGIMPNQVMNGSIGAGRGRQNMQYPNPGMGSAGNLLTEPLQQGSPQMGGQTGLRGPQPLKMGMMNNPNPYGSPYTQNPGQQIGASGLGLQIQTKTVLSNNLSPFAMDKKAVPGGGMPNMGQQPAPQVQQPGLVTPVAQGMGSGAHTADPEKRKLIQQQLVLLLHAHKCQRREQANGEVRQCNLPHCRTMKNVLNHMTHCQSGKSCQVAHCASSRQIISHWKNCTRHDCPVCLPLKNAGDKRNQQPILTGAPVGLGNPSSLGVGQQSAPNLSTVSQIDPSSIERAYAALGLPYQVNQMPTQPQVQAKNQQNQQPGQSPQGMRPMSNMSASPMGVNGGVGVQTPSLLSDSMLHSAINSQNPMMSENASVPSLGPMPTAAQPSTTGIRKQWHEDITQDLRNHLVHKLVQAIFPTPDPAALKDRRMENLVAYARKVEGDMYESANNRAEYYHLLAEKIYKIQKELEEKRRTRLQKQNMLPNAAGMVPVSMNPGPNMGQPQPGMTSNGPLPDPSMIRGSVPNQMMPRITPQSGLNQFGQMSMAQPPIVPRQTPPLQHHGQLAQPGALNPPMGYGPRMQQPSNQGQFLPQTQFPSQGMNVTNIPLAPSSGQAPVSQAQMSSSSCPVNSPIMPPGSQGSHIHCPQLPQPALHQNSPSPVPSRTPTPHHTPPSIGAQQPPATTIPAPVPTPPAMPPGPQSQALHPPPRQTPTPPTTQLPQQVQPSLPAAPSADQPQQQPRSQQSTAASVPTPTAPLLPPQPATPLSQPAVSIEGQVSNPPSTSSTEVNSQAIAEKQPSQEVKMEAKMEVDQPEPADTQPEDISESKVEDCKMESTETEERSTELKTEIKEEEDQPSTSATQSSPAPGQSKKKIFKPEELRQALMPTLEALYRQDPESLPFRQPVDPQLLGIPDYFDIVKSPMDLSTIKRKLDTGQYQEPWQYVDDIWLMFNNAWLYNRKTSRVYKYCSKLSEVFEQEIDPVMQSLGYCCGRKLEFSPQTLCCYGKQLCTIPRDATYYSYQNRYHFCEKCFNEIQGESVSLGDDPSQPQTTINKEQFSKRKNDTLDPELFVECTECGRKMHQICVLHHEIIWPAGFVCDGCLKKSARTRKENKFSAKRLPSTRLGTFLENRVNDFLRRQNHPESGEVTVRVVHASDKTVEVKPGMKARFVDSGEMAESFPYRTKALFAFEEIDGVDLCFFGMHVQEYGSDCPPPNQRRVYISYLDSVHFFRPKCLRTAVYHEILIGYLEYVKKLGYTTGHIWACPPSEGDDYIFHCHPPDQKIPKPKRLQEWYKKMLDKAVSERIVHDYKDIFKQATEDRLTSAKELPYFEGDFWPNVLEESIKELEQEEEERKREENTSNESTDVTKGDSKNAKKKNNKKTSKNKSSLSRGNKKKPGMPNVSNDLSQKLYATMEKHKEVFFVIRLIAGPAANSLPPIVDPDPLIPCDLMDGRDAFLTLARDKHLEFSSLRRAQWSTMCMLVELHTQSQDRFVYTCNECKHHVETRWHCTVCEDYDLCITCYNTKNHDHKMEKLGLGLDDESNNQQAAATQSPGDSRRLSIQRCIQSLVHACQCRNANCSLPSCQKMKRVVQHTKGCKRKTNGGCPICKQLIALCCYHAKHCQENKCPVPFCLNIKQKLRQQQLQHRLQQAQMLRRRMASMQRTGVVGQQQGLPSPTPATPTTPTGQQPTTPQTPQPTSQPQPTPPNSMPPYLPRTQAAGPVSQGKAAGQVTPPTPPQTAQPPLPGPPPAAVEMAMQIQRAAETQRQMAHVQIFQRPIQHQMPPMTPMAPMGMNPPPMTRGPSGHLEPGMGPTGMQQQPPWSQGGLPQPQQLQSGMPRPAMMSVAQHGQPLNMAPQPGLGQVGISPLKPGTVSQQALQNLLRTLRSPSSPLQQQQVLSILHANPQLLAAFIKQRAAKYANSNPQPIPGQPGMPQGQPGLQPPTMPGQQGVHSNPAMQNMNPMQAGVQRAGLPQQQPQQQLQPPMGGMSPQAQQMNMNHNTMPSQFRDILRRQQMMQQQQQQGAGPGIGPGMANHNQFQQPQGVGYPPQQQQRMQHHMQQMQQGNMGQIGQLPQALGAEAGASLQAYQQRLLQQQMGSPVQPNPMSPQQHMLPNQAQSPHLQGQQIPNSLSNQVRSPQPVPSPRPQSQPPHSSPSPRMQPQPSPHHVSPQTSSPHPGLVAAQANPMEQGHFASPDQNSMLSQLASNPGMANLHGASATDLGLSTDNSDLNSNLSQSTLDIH

Results are given in words; binding and its absence hold for the method and conditions named. In cells and extracts the contact can be indirect. Binding can be weak; no strength is given.

The target in the assay is CH3 deleted P300 (HA-tagged) (human) (UniProt Q09472). Put plainly: co-IP; TNE lysates of transfected HuCCT-1 cells; P300 immunoprecipitated, complexes collected on protein G Dynabeads, Western blot; with or without TGF-beta1 (5 ng/mL, 24 hrs). In general terms: In western blotting, separated proteins are transferred to a membrane and probed.

B1: ZEB1 (co-immunoprecipitated with P300; source not stated) (protein, UniProt P37275 1-1124)
chain: MADGPRCKRRKQANPRRNNVTNYNTVVETNSDSDDEDKLHIVEEESVTDAADCEGVPEDDLPTDQTVLPGRSSEREGNAKNCWEDDRKEGQEILGPEAQADEAGCTVKDDECESDAENEQNHDPNVEEFLQQQDTAVIFPEAPEEDQRQGTPEASGHDENGTPDAFSQLLTCPYCDRGYKRFTSLKEHIKYRHEKNEDNFSCSLCSYTFAYRTQLERHMTSHKSGRDQRHVTQSGCNRKFKCTECGKAFKYKHHLKEHLRIHSGEKPYECPNCKKRFSHSGSYSSHISSKKCISLIPVNGRPRTGLKTSQCSSPSLSASPGSPTRPQIRQKIENKPLQEQLSVNQIKTEPVDYEFKPIVVASGINCSTPLQNGVFTGGGPLQATSSPQGMVQAVVLPTVGLVSPISINLSDIQNVLKVAVDGNVIRQVLENNQANLASKEQETINASPIQQGGHSVISAISLPLVDQDGTTKIIINYSLEQPSQLQVVPQNLKKENPVATNSCKSEKLPEDLTVKSEKDKSFEGGVNDSTCLLCDDCPGDINALPELKHYDLKQPTQPPPLPAAEAEKPESSVSSATGDGNLSPSQPPLKNLLSLLKAYYALNAQPSAEELSKIADSVNLPLDVVKKWFEKMQAGQISVQSSEPSSPEPGKVNIPAKNNDQPQSANANEPQDSTVNLQSPLKMTNSPVLPVGSTTNGSRSSTPSPSPLNLSSSRNTQGYLYTAEGAQEEPQVEPLDLSLPKQQGELLERSTITSVYQNSVYSVQEEPLNLSCAKKEPQKDSCVTDSEPVVNVIPPSANPINIAIPTVTAQLPTIVAIADQNSVPCLRALAANKQTILIPQVAYTYSTTVSPAVQEPPLKVIQPNGNQDERQDTSSEGVSNVEDQNDSDSTPPKKKMRKTENGMYACDLCDKIFQKSSSLLRHKYEHTGKRPHECGICKKAFKHKHHLIEHMRLHSGEKPYQCDKCGKRFSHSGSYSQHMNHRYSYCKREAEERDSTEQEEAGPEILSNEHVGARASPSQGDSDERESLTREEDEDSEKEEEEEDKEMEELQEEKECEKPQGDEEEEEEEEEVEEEEVEEAENEGEEAKTEGLMKDDRAESQASSLGQKVGESSEQVSEEKTNEA
B1: the binding entry is listed as “binds”.
